Consider 26 molecules from PubChem BioAssay AID192 (DTP/NCI, 2004).

The list does not hold the whole screen: it is rich in T/C values a quarter to a half above the control, in often repeated tests (any T/C) and in doses without a T/C. Other doses and runs of a compound stand elsewhere. T/C is the treated group as % of the vehicle group. Some doses have a count of surviving animals in place of a T/C: the source files T/C as zero there, which appears to mark a toxic dose or a test without result, not a measured value. Some survivor counts are full or nearly so, which does not show that the dose was tolerated: survival well below the control is almost never listed, so the zero probably covers shortened survival too. Counts of survivors are from the toxicity check (mostly the fifth day) where no day follows; animals may have died later. Schedule codes are those of the source, taken here to give the interval after Q, in days (D) or hours (H), and the number of doses after X. Where survival is the endpoint, the PubChem record calls one and a half times the control and up active, and a quarter to a half above the control has no call in these data; cut-offs in other NCI protocols can differ.

This assay relates to BDF1 mice, B16 melanoma ip, median survival T/C. The experiment in a line: NCI In Vivo Anticancer Drug Screen. Data for tumor model B16 Melanoma (intraperitoneal) in B6D2F1 (BDF1) mice. The following applies: T/C endpoint: median survival time, higher T/C = longer survival. On the procedure:
The antitumor activity of compounds was measured in mice bearing transplantable tumors. Survival or tumor size were measured and the results are expressed as the measurement made in the treated group (T) divided by the measurement made in the vehicle treated control group (C). The tumor model used in this assay is B16 Melanoma (intraperitoneal) in B6D2F1 (BDF1) mice

The mark [1] stands for this setting: dose: 400.0 mg/kg/injection, schedule: Q04DX003 (ip), vehicle: saline with Tween-80.
Setting [2] is: dose: 50.0 mg/kg/injection, schedule: Q01DX009 (ip), vehicle: saline.
[3] abbreviates: dose: 100.0 mg/kg/injection, schedule: Q01DX009 (ip), vehicle: saline.
Where [4] appears, read: dose: 200.0 mg/kg/injection, schedule: Q01DX009 (ip), vehicle: saline.
The mark [5] stands for this setting: dose: 100.0 mg/kg/injection, schedule: Q04DX003 (ip), vehicle: saline.
The mark [6] stands for this setting: dose: 200.0 mg/kg/injection, schedule: Q04DX003 (ip), vehicle: saline.
Setting [7] is: dose: 400.0 mg/kg/injection, schedule: Q04DX003 (ip), vehicle: saline.
The mark [8] stands for this setting: dose: 200.0 mg/kg/injection, schedule: Q01DX009 (ip), vehicle: Klucel (hydroxypropylcellulose) (HPC).
[9] abbreviates: dose: 400.0 mg/kg/injection, schedule: Q01DX009 (ip), vehicle: Klucel (hydroxypropylcellulose) (HPC).
The mark [10] stands for this setting: dose: 100.0 mg/kg/injection, schedule: Q01DX009 (ip), vehicle: Klucel (hydroxypropylcellulose) (HPC).
The mark [11] stands for this setting: dose: 12.5 mg/kg/injection, schedule: Q01DX009 (ip), vehicle: Klucel (hydroxypropylcellulose) (HPC).
The mark [12] stands for this setting: dose: 25.0 mg/kg/injection, schedule: Q01DX009 (ip), vehicle: Klucel (hydroxypropylcellulose) (HPC).

`CC(=O)C1CCC2C3CCC4=CC(=O)CC4(C)C3CCC12C` (stereo unspecified): under setting [1], the survivor count is 7 of 10.

As for `CN1CN(C)CN(C)C1`, under setting [2], the T/C is 125 % of control. Also, the survivor count under setting [3] is listed as 10 of 10.

On to `CC1(C)N=C(N)N=C(N)N1c1cccc(CNC(=O)Nc2cccc(S(=O)(=O)F)c2)c1`, for which the survivor count runs as follows: under setting [3], 4 of 6; under setting [4], 0 of 6.

With `CC[S][Hg][Cl]`, the survivor count by setting is: (dose: 6.0 mg/kg/injection, schedule: Q04DX003 (ip), vehicle: saline with Tween-80) 10 of 10; (dose: 12.5 mg/kg/injection, schedule: Q04DX003 (ip), vehicle: saline with Tween-80) 6 of 10; (dose: 25.0 mg/kg/injection, schedule: Q04DX003 (ip), vehicle: saline with Tween-80) 4 of 10.

For the molecule `COc1ccc(C2=CN(S(=O)(=O)c3ccc(C)cc3)CCc3ccccc32)cc1`, for the setting “dose: 200.0 mg/kg/injection, schedule: Q04DX003 (ip), vehicle: Klucel (hydroxypropylcellulose) (HPC)”, the survivor count was 8 of 10.

With `CCCCCCCCCCCCCCCCCCOC(=O)Cc1ccc(N(CCCl)CCCl)cc1`, the survivor count is given as 10 of 10 under setting [1] and 10 of 10 (dose: 600.0 mg/kg/injection, schedule: Q04DX003 (ip), vehicle: saline with Tween-80).

Consider `O=C1CN(CCN2CC(=O)NC(=O)C2)CC(=O)N1`, for which the T/C by setting is: (dose: 60.0 mg/kg/injection, schedule: Q01DX009 (oral), vehicle: saline) 127 % of control; (dose: 120.0 mg/kg/injection, schedule: Q01DX009 (oral), vehicle: saline) 140 % of control; (dose: 240.0 mg/kg/injection, schedule: Q01DX009 (oral), vehicle: saline) 143 % of control.

For `CCCCCCCCCCCCCCCC(=O)N(C(C)CCCN(CC)CC)C(C)CCCN(CC)CC` (stereo unspecified), the survivor count is, setting by setting: (dose: 6.25 mg/kg/injection, schedule: Q01DX009 (ip), vehicle: other) 10 of 10; (dose: 25.0 mg/kg/injection, schedule: Q01DX009 (ip), vehicle: other) 10 of 10.

Consider `CC(NC(=O)c1ccccc1)C(=O)NC(CSC(c1ccccc1)c1ccccc1)C(=O)O` (stereo unspecified), for which the survivor count is reported as 7 of 10 under setting [5], 3 of 10 under setting [6] and 0 of 10 under setting [7].

For `Nc1cccs1`, the survivor count is on record as 10 of 10 under setting [3]; 3 of 10 under setting [4]; 0 of 10 (dose: 400.0 mg/kg/injection, schedule: Q01DX009 (ip), vehicle: saline).

For the molecule `c1cc(OCC2CO2)ccc1OCC1CO1` (stereo unspecified), the survivor count runs as follows: under setting [8], 8 of 10; under setting [9], 1 of 10.

As to `CCN(C(=O)c1ccc(Cl)cc1Cl)c1ccccc1C`, the survivor count by setting is: under setting [10], 10 of 10; under setting [8], 10 of 10; under setting [9], 10 of 10.

`CC(C)n1c(=S)[nH]c2ccccc2c1=O`: the T/C (dose: 25.0 mg/kg/injection, schedule: Q01DX009 (ip), vehicle: saline) was 130 % of control. For the same molecule, the survivor count reads like this: under setting [2], 9 of 10; (dose: 200.0 mg/kg/injection, schedule: Q01DX009 (ip), vehicle: saline with Tween-80) 6 of 6; under setting [9], 8 of 10; (dose: 400.0 mg/kg/injection, schedule: Q01DX009 (ip), vehicle: saline with Tween-80) 6 of 6.

Consider `O=C1CC(=O)C(Br)=C1Br`, for which the survivor count is reported as 10 of 10 (dose: 0.75 mg/kg/injection, schedule: Q04DX003 (ip), vehicle: saline with Tween-80) and 9 of 10 (dose: 1.5 mg/kg/injection, schedule: Q04DX003 (ip), vehicle: saline with Tween-80).

Take `Cc1c[n+]2c3ccccc3c3ccccc3c2s1`: the survivor count is recorded as 3 of 6 (dose: 40.0 mg/kg/injection, schedule: Q01DX009 (ip), vehicle: saline) and 3 of 6 (dose: 80.0 mg/kg/injection, schedule: Q01DX009 (ip), vehicle: saline).

As for `C[P+](C)(Cc1ccc([N+](=O)[O-])cc1)c1ccccc1`, under setting [10], the survivor count was 0 of 10.

As for `CCCCCCCCCCCCCC[N+](C)(C)CCCCCCCCCCCCCC`, the survivor count reads like this: (dose: 12.0 mg/kg/injection, schedule: Q01DX009 (ip), vehicle: saline) 9 of 10; (dose: 24.0 mg/kg/injection, schedule: Q01DX009 (ip), vehicle: saline) 7 of 10; (dose: 48.0 mg/kg/injection, schedule: Q01DX009 (ip), vehicle: saline) 0 of 10.

Take `CCC[CH2][Sn-]([CH2]CCC)([CH2]CCC)[O]C(=O)C(C)C`: the T/C was 138 % of control (dose: 0.37 mg/kg/injection, schedule: Q01DX009 (ip), vehicle: saline with Tween-80); 127 % of control (dose: 0.75 mg/kg/injection, schedule: Q01DX009 (ip), vehicle: saline with Tween-80); 131 % of control (dose: 1.5 mg/kg/injection, schedule: Q01DX009 (ip), vehicle: saline with Tween-80). Further, the survivor count (dose: 3.0 mg/kg/injection, schedule: Q01DX009 (ip), vehicle: saline with Tween-80) was 2 of 10.

`Cn1ncc2c(N)ncnc21`: the survivor count under setting [11] was 9 of 10; the survivor count under setting [12] is reported as 10 of 10; the survivor count (dose: 50.0 mg/kg/injection, schedule: Q01DX009 (ip), vehicle: Klucel (hydroxypropylcellulose) (HPC)) is given as 10 of 10; the survivor count under setting [10] was 3 of 10.

In the case of `C[CH2][Pb]([CH2]C)([CH2]C)[n]1cnc2ccccc21`, the survivor count by setting is: (dose: 3.0 mg/kg/injection, schedule: Q01DX009 (ip), vehicle: Klucel (hydroxypropylcellulose) (HPC)) 10 of 10; (dose: 6.0 mg/kg/injection, schedule: Q01DX009 (ip), vehicle: Klucel (hydroxypropylcellulose) (HPC)) 7 of 10; (dose: 12.0 mg/kg/injection, schedule: Q01DX009 (ip), vehicle: Klucel (hydroxypropylcellulose) (HPC)) 0 of 10.

In the case of `CC1CC(C)CC(C)C(O)/C(C#N)=C/C=C/CC(C2CCCC2C(=O)O)OC(=O)CC(O)C(C)C1` (stereo unspecified), the survivor count (dose: 2.0 mg/kg/injection, schedule: Q01DX009 (ip), vehicle: saline with Tween-80) is reported as 8 of 10; the survivor count (dose: 6.25 mg/kg/injection, schedule: Q01DX009 (ip), vehicle: Klucel (hydroxypropylcellulose) (HPC)) was 4 of 10; the survivor count under setting [11] was 2 of 10; the survivor count under setting [12] is 0 of 10.

As to `CC(C)C(C(=O)c1ccccc1)C(c1ccccc1)c1ccccc1` (stereo unspecified), where the note is “dose: 400.0 mg/kg/injection, schedule: Q04DX003 (ip), vehicle: other”, the survivor count is reported as 6 of 10.

With `C=CCC(N)Cc1ccccc1` (stereo unspecified), the survivor count is, setting by setting: under setting [3], 5 of 10; under setting [5], 7 of 10; under setting [4], 0 of 10; under setting [6], 0 of 10; under setting [7], 0 of 10.

With `COc1cc(Cc2nccc3cc(OC)c(OC)cc23)c(C(C)=O)c(OC)c1`, the survivor count (dose: 160.0 mg/kg/injection, schedule: Q01DX009 (ip), vehicle: saline) is 10 of 10.

As to `CCC1CCCCN1C(=S)N/N=C(\C)c1ccccn1` (stereo unspecified), the survivor count runs as follows: (dose: 25.0 mg/kg/injection, schedule: Q01DX009 (ip), vehicle: saline with Tween-80) 7 of 10; (dose: 50.0 mg/kg/injection, schedule: Q01DX009 (ip), vehicle: saline with Tween-80) 6 of 10; (dose: 100.0 mg/kg/injection, schedule: Q01DX009 (ip), vehicle: saline with Tween-80) 4 of 10.

`NC(Cc1cc(I)c(Oc2cc(I)c(O)c(I)c2)c(I)c1)C(=O)O` (stereo unspecified): the survivor count (dose: 8.0 mg/kg/injection, schedule: Q01DX009 (ip), vehicle: saline) was 10 of 10.
